Measurements published in article doi:10.1101/2023.12.01.569363.
These are yes or no findings as the source states them, for the method shown. Some results given as binding are weak or reduced against the parent protein; the word gives no strength.

The chains behind the UniProt entries cited, without tags or fusion partners.
UniProt P11166: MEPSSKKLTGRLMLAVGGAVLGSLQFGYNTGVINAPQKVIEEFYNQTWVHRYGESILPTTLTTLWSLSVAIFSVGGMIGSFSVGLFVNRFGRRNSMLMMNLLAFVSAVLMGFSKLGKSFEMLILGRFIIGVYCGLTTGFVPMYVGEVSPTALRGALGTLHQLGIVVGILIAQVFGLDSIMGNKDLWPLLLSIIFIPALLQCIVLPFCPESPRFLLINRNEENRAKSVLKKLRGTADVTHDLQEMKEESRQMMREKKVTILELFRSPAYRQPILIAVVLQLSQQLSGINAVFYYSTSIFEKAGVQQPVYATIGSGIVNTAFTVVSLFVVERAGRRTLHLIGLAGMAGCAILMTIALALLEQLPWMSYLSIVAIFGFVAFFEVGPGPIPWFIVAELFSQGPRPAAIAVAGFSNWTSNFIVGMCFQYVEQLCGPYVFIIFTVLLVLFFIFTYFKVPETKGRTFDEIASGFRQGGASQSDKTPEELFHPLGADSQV

Molecular target: glucose transporter 1 (human (endogenous in HeLa)) (UniProt P11166)
Experiment: far-Western, overlay or dot blot

- binding: binds
B1: PURA (protein, UniProt Q00577 1-322)
chain: MADRDSGSEQGGAALGSGGSLGHPGSGSGSGGGGGGGGGGGGSGGGGGGAPGGLQHETQELASKRVDIQNKRFYLDVKQNAKGRFLKIAEVGAGGNKSRLTLSMSVAVEFRDYLGDFIEHYAQLGPSQPPDLAQAQDEPRRALKSEFLVRENRKYYMDLKENQRGRFLRIRQTVNRGPGLGSTQGQTIALPAQGLIEFRDALAKLIDDYGVEEEPAELPEGTSLTVDNKRFFFDVGSNKYGVFMRVSEVKPTYRNSITVPYKVWAKFGHTFCKYSEEMKKIQEKQREKRAACEQLHQQQQQQQEETAAATLLLQGEEEGEED
